About 820 (0.29%) of roughly 280,000 compounds were called active. All entries are inconclusive by the source's own rule. Clear calls are listed elsewhere. Calls follow the shape of the dose curve; as a rule, active = well fitted curve in either direction with a large enough effect; inconclusive = small, poorly fitted or top-dose-only effect; inactive = flat fitted curve, though single readings scatter. Some results for these compounds are left out of this collection, so the calls shown say nothing about other tests.
Assay: Total Fluorescence Counterscreen for Inhibitors of the Interaction of Thyroid Hormone Receptor and Steroid Receptor Coregulator 2
Conditions: TRb/SRC2 Texas Red total fluorescence interference
Potency is read from the fitted curve at half-maximal effect.

| SMILES | Potency |
| --- | --- |
| CCCCOc1ccccc1C(=O)NCC1(N(C)C)CCCCC1 | inconclusive: 8.91 µM |

Reference: PubChem BioAssay AID1479 (National Center for Advancing Translational Sciences (NCATS), 2009)
